Test results: paper PMC5069460, “A novel gene cluster allows preferential utilization of fucosylated milk oligosaccharides in Bifidobacterium longum subsp. longum SC596” (Scientific Reports, 2016)

System: BLNG_01264 (α-fucosidase)
Assay: LC-MS of digested HMO pool
Assay type: biochemical, Bifidobacterium longum subsp. longum
Conditions: reduced (alditol) HMO pool; pH 7.0, 45 °C, 1 and 3 h

Substance	% removed
Fuca1-2Galβ1-4Glcβ-Sp0	~ 100%
LDFT	~ 100%
